# Experimental data as given in patent publication US20140363818A1, “EGFR and PAR2 Regulation of Intestinal Permeability” (UNIVERSITY OF MARYLAND, BALTIMORE, priority 2009, published 2014).
# Tested on: serine proteases
# Experiment: Proteolytic cleavage of single chain pre-HP2 by serine proteases (SDS-PAGE)
# Format: biochemical
# Settings: purified single chain pre-HP2
substance,measurement,setting,value
"zonulin: Recombinant human haptoglobin-2 precursor (pre-HP2), uncleaved single chain, expressed in a baculovirus system","cleavage by matriptase, urokinase, thrombin and plasma kallikrein",,did not cleave
same,cleavage by plasmin,,complete degradation
same,cleavage by trypsin,cleaved at Arg161,appearance of two major bands
